Among all 53,000 sequences or so, about 3,700 (7%) were called active.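 Rule for the calls: active = gene knockdowns whose robust z-score for IL-1 alpha signal is at least 2 or at most -2, so actives lie on both sides; inactive = the rest.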 This is one part of the list.

A short description of the assay: Components of the Cytosolic LPS Sensing Pathway: Gene Identification via Genome-wide siRNA Screen.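 Note: robust z of the log signal after scaling to non-targeting control siRNA wells of the plate.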 The settings on record: RAW264.7 macrophages, IL-1a HTRF, actives lie on both sides, screened at 100 nM (by protocol), cells primed 5 h with Pam3CSK4 first. In outline:
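RAW264.7; siRNA 100 nM final, RNAiMAX, 48h 37 degrees C; Pam3CSK4 5 h; LipidA + TransIT-TKO 24 h; IL-1a HTRF; CellTiter-Glo viability; robust z vs negative-control median.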
Take CGUCCAUAAGCAGGUGUGUTT against Cops6: the z-score was inactive: -0.0356.
Under GGAAGAAACUGGCUACAAATT against Nudt5 stands inactive: -1.04; under GGGUUCUUUCCAAAGUUACTT against Dennd5b, inactive: -0.154; under CGACCAAUGGGCGUAAUCATT against Obox3, inactive: 1.25.
Under GGACUCAAAAAAGCAACGUTT against Tpbpb stands inactive: -0.467.
Consider CCCAACAAAUACCACUACATT against Usp20, for which the z-score is inactive: -1.39.
For GGCUGCUUGGUGUCAUUUUTT against Mrps34, the z-score is inactive: -0.266.
Regarding GGGAAUGCAAGACUUCAAUTT against Cpn1, the z-score is inactive: -0.166.
For the sequence CCUUCUAAAUACUGAUUUGTT against Ugt2b38, the z-score is inactive: 0.699.
The same measure for CCUUCGUGUUCACUUUAAGTT against Rpl17: inactive: -1.5.
With CCAAGUCAAGUAACCCUUATT against Fgf4, the z-score is inactive: 0.198.
On to CCAUCAAGCGAUUUGUGGUTT against Rnf103, for which the z-score was inactive: -0.156.
The same measure for GGGAAUGGUUCGAGGAAAATT against Trex1: inactive: -0.536; for GGAGAAGUUUAGUGAAGAATT against Rmdn2: active: -2.48.
For the sequence GCCACGACAACAAAUCCCATT against Lbr, the z-score was active: -2.62.
Under GGUUGAAUCAGGCAUCAUUTT against Sypl stands inactive: 0.617; under GGGCUACACAAGUCCCUAUTT against Hoxd13, inactive: 0.739.
Under GCGGCAUACUCCAACUUCUTT against Colgalt1 stands inactive: -0.295.
As to GGAGAAGAAACAAAAACCUTT against Ktn1, the z-score is inactive: -1.16.
For GGGAUUAAAGAUUUGGUUGTT against Efcab1, the z-score is inactive: 0.999.
As for GGUUGUUUAGCCAGUGCACTT against Spryd7, the z-score was inactive: -0.496.
Under GGACACUAUACAAAUUUCGTT against Fank1 stands inactive: -0.109; under CCUACACUAAAAUUCACCATT against Muc15, inactive: -0.549.
With GGAACCAUGGCAGUGCAUCTT against Dlk1, the z-score was inactive: -1.79.
With UAGGAGAUAUCUGCUACCGTT against Fbxw16, the z-score was active: -2.53.
Under GGCCAGUGAGCAGCAUUAUTT against Krt222 stands inactive: 0.787.
In the case of CGUGGAUAAAAUUAAGUAGTT against Pdlim2, the z-score is inactive: 0.733.
With GGGUUCUCAAGGUUGCAUUTT against Frs3, the z-score is inactive: 1.15.
As for CGUAGAUGUCCUAGAAUUGTT against Rundc1, the z-score is inactive: 1.37.
The same measure for GCUUCUUCAAGAGUAUAAUTT against Gad2: inactive: -0.443; for CCCAACAUUAUCUUGGACCTT against Mrgpra8: inactive: -0.26; for CGGUGCAUACUCAAUAAACTT against Spag11a: inactive: -0.607.
Take GGAGCUUCUGGAGUAUUAUTT against Ccdc77: the z-score is inactive: 0.0652.
The same measure for GGCUGUAUCUCAUCUUUGATT against Cdk1: inactive: -0.607; for GCACAUCUUGGACCGUUUCTT against Lhx3: inactive: 0.851; for GCGUGUUUGCCUCGGCAAATT against Ahdc1: inactive: 0.61.
Take CCUGUUGAGUGACCUAAGGTT against Ap5b1: the z-score is inactive: 1.28.
With CCGUAAAACCAUGAAGAAGTT against Pdzd4, the z-score is inactive: 0.33.
For CCUAGUUUGGUGAUGAUGUTT against Atg10, the z-score is inactive: -0.262.
As to CGGUAAUGGGUAUCCUUUGTT against Olfr620, the z-score was inactive: 0.481.
As to GGAAGCAACUUGGAAUUUGTT against Ctnna3, the z-score is inactive: 0.886.
The same measure for GGUUUUGGUAUAGAUACUUTT against Phxr4: inactive: -0.548.
The same measure for GGGCAUAACGUGUUCACAUTT against Sptssb: inactive: -0.31; for GGUCCACAUAUCUGACUGATT against Calm5: inactive: 0.153.
As to GCUCAGACAGCUUCGACAUTT against Ano7, the z-score is inactive: -0.842.
Turning to GGAGAGUGCUCAAUAAGACTT against Mtfr1, the z-score is inactive: 0.46.
Consider GCCUAGAAAGUUCUAUGUUTT against Fcho1, for which the z-score is inactive: -0.632.
Under CCAUAUAUCUGAUCACACUTT against Olfr832 stands inactive: 1.59; under CGAUUGAUGAAUCUGGUUCTT against Racgap1, inactive: -0.31.
CGACACCAGUCUCAAUGAATT against Olfr368: the z-score was inactive: -0.158.
Under CCUGAUGGAUGAUGAAUCATT against Trap1a stands inactive: -1.42.
As to CCUCAAGUCUGUGAAGAAATT against Tnni1, the z-score is inactive: 1.11.
Take GGAUUCUGGGCUGAAUGGGTT against Pcdh18: the z-score was inactive: -0.491.
Under GAUCAUCACAGAGGUCCAGTT against Fabp6 stands inactive: 0.308.
Regarding GCUAGAAGCCUGACAUUUUTT against Tbca, the z-score is inactive: -0.538.
Regarding GGAUGAACUCAUGAGAGCCTT against Cyb5r4, the z-score was inactive: -0.323.
Consider GGAGCCUCUAGGAAACAAATT against Slc28a3, for which the z-score is inactive: 0.309.
In the case of GCCACUUAGAAAACCGUGUTT against Cox7a1, the z-score was inactive: -0.0911.
Under CCGAAAUAAGGCUAGCUCATT against Rfx6 stands inactive: -0.282.
On to CCUAGCAUGUUUCUUGCUATT against Rnft2, for which the z-score was inactive: 0.46.
On to GGAAGAGUAAAGGAGAUUUTT against Spop, for which the z-score is inactive: -0.548.
Regarding GGCCUCAAACUGAAUAUUATT against Serpina7, the z-score is inactive: 0.472.
In the case of GGAAGAUGAAGAUGAGAAUTT against Igbp1b, the z-score is inactive: -1.24.
Consider GGAACAGGGCAGUAAGACCTT against Dhcr24, for which the z-score was inactive: 0.738.
Take GCAGGCCUAAGCCCAUUGATT against Vmn1r46: the z-score is inactive: 0.951.
For the sequence GGCCCUCAAAAAUCACGAGTT against Ehd1, the z-score was inactive: 1.11.
For the sequence GGCUGCAUGGUACAGAUCUTT against Olfr463, the z-score was active: -2.33.
Regarding CCGGUACCUCAAUUCAACUTT against Skida1, the z-score was inactive: -0.686.
In the case of GCUCGAUUUUAAGCAUAUGTT against Snx33, the z-score is inactive: 1.77.
Take GGAUUCUGACAAAACUGGATT against Nt5c1b: the z-score is inactive: 0.809.
In the case of GGACACAAAAGUUCACAUUTT against Smpx, the z-score is inactive: -0.421.
For the sequence GCGAUGUGGCCUAAAUAGGTT against Igfals, the z-score is inactive: 0.665.
In the case of GGACAGUCAUUACCAAAAATT against Topors, the z-score is inactive: -1.97.
The same measure for GGAAGAGAGAGACAAGGAUTT against Dap: inactive: 1.38; for CCUUUUUCUGGAUUGGAAUTT against Klrd1: inactive: -0.00525; for GCAUAGUGAACACAAACGGTT against Rgs14: inactive: -0.537.
In the case of GCUGGUUAUUCUCUUAUAGTT against Cavin2, the z-score was inactive: 1.97.
Under GGUGAUAUAUCCAUCAAAATT against Rbm43 stands inactive: 1.23.
Under GGGAGAAAAAGGCAUUUUUTT against Them5 stands inactive: 0.46; under GGUCUGUGGACUGAACUUATT against Bcl2l11, active: -2.6; under GGACAAGGCCUAUAGACCUTT against Vmn1r70, inactive: 1.
Turning to GUACAACCACUAUGGCGACTT against Mfap2, the z-score is inactive: -0.155.
For the sequence GGUUUAAGCACUACAGUGATT against Bod1, the z-score was inactive: 0.254.
Turning to GGUAAAGAAGAUCGACAGCTT against Adrb1, the z-score was inactive: -0.785.
Consider GCAUAUUCUUCCAACUUCCTT against Sp8, for which the z-score is inactive: -1.8.
Turning to GCUGUUCCACAUUGAAGUGTT against Pcdh18, the z-score is active: 2.84.
On to CACGGUAUAGCAGCUAUUATT against Mbtps2, for which the z-score is inactive: -1.46.
The same measure for “GGAGUCUAAACUGACAAACTT against 1700088E04Rik”: inactive: -0.6.
GCUAGAGAAAAAACAGCCATT against Csf2rb: the z-score is inactive: -0.75.
Take GCUGGAAGAUCUGCUCAACTT against Eno4: the z-score was inactive: 0.486.
In the case of GGCUGUAGUUGGCUAACACTT against Slc25a28, the z-score is inactive: -0.103.
As for GGUUUACAAGUUUCUAAGCTT against Ube2o, the z-score is inactive: 0.614.
For GGACCUCAUCUAUGCAUGUTT against Olfr1394, the z-score is inactive: -0.0256.
For the sequence GGUCAUUCAGCUGGAAGAUTT against Zfp143, the z-score was inactive: -1.07.
For the sequence GGACUAACAACUCUGGUCUTT against Mea1, the z-score was inactive: -0.199.
As for GCGUAUCCCAGAUAUCCGATT against Fam180a, the z-score was inactive: 0.951.
The same measure for GGAUGAUGCCGAUUACUUCTT against Vpreb3: inactive: -0.352; for GGAUGUCAAACUCGCCCUGTT against Olfr61: inactive: 0.708.
For UUGCCUCUUCCUACGCCUUTT against Cers1, the z-score was inactive: -1.14.
Regarding CCGACAGUCUUGAUAUUAATT against Cbx5, the z-score was inactive: -0.248.
Under GGCCUUUGCACGUGGAUUGTT against Zfp420 stands inactive: -0.221; under “GGUUUUGUCACCAUAGCCATT against 3110040N11Rik”, inactive: -0.762; under GGAUGAAUCUGAAGAUUCCTT against Nol3, inactive: 0.113.
CCUCCCAAUUCCAUUGGAATT against Serpinb3a: the z-score is inactive: 1.02.
On to CGGGUGUGCCGUGUUUGUATT against Tmem192, for which the z-score is inactive: 1.67.
As to GGAGUGCACUGCAUCAUGUTT against Flywch2, the z-score is inactive: -0.289.
With CCUUUUCCCGCUCUUAAAATT against Olfr1260, the z-score is inactive: 0.616.

(Values after PubChem BioAssay AID1508600 (Functional Genomics Laboratory (NCATS/FGL), 2020).)
